Experimental data: PubChem BioAssay AID1259424 (University of Nebraska Medical Center, 2018)
The deposit covers about 14,000 reagents; shown is a random part of them. 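Higher correlation or smaller distance means closer resemblance to KSR1 loss; control wells, including KSR1 knockdowns, recur on many plates.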 The record does not give: the time to read-out.

Purpose: 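Find knockdowns that reproduce the expression shifts seen after KSR1 loss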 (primary screen)
Cells: human HCT116 colon cancer cells
Knock-down reagent: siRNA pool against human genes, 50 nM
Read-out: 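Six signature mRNAs by branched-DNA multiplex assay, scaled to two housekeeping genes and non-targeting median, log2; matched to mean KSR1 knockdown profile by Pearson correlation and euclidean distance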
Reading the numbers: mean correlation with KSR1 profile and KSR1 correlation: higher = expression change more like KSR1 knockdown; mean distance from KSR1 profile: higher = expression change less like KSR1 knockdown

| Gene | PubChem SID | mean correlation with KSR1 profile | mean distance from KSR1 profile | KSR1 correlation, replicate 1 | KSR1 correlation, replicate 2 | KSR1 correlation, replicate 3 |
| --- | --- | --- | --- | --- | --- | --- |
| LINC00470 (long independently transcribed non-coding RNA 470) | SID364003603 | -0.546 | 1.59 | 0.125 | -0.647 | -0.694 |
| BAZ2B (bromodomain adjacent to zinc finger domain 2B) | SID363998527 | 0.963 | 0.906 | 0.985 | 0.727 | 0.732 |
| IL18RAP (interleukin 18 receptor accessory protein) | SID363994914 | -0.366 | 2.04 | -0.382 | -0.325 | -0.541 |
| SNRPD3 (small nuclear ribonucleoprotein D3 polypeptide) | SID363995179 | -0.402 | 2.98 | -0.643 | -0.199 | -0.291 |
| MRPL22 (mitochondrial ribosomal protein L22) | SID363998637 | 0.285 | 1.76 | 0.0349 | 0.0345 | 0.0664 |
| PEX19 (peroxisomal biogenesis factor 19) | SID363994013 | 0.569 | 1.69 | 0.575 | 0.539 | 0.506 |
| GPR19 (G protein-coupled receptor 19) | SID363996974 | 0.18 | 3.09 | 0.205 | 0.175 | 0.121 |
| ANKRD7 (ankyrin repeat domain 7) | SID364001445 | 0.16 | 1.83 | 0.0271 | 0.12 | 0.145 |
| ALOX12B (arachidonate 12-lipoxygenase, 12R type) | SID363992431 | 0.127 | 2.05 | 0.102 | 0.207 | 0.028 |
| ETFB (electron transfer flavoprotein subunit beta) | SID363993197 | 0.207 | 1.36 | 0.368 | 0.0418 | 0.16 |
| PDGFA (platelet derived growth factor subunit A) | SID363993775 | -0.126 | 4.49 | -0.0274 | -0.242 | -0.118 |
| DCAF10 (DDB1 and CUL4 associated factor 10) | SID364002811 | 0.202 | 2.36 | 0.252 | 0.24 | 0.229 |
| TNFRSF10B (TNF receptor superfamily member 10b) | SID363994903 | 0.599 | 2.22 | 0.495 | 0.42 | 0.724 |
| FFAR2 (free fatty acid receptor 2) | SID363996223 | 0.495 | 2.84 | 0.215 | 0.423 | 0.654 |
| MMP15 (matrix metallopeptidase 15) | SID363993606 | -0.252 | 4.48 | -0.108 | -0.26 | -0.458 |
| DNAJB12 (DnaJ heat shock protein family (Hsp40) member B12) | SID364000401 | -0.585 | 1.37 | -0.51 | -0.332 | -0.429 |
| GRID2 (glutamate ionotropic receptor delta type subunit 2) | SID363992768 | -0.649 | 1.87 | -0.83 | -0.596 | -0.516 |
| MYOC (myocilin) | SID363991594 | -0.0137 | 2.69 | -0.138 | -0.235 | 0.116 |
| SIGLEC9 (sialic acid binding Ig like lectin 9) | SID363998856 | -0.217 | 2.08 | -0.514 | -0.191 | -0.375 |
| EXOSC1 (exosome component 1) | SID363999822 | -0.353 | 3.45 | -0.157 | -0.0824 | -0.486 |
| PRPF40A (pre-mRNA processing factor 40A) | SID364005456 | -0.54 | 6.31 | -0.393 | -0.425 | -0.581 |
| ATL1 (atlastin GTPase 1) | SID363999717 | 0.34 | 2.6 | 0.396 | 0.417 | 0.0525 |
| TUT4 (terminal uridylyl transferase 4) | SID364005103 | -0.141 | 2.56 | -0.654 | -0.618 | 0.158 |
| TACR1 (tachykinin receptor 1) | SID363992355 | 0.516 | 1.86 | 0.396 | 0.543 | 0.777 |
| NSA2 (NSA2 ribosome biogenesis factor) | SID363999172 | -0.585 | 2.76 | -0.692 | -0.255 | -0.411 |
| LY96 (lymphocyte antigen 96) | SID363999443 | -0.308 | 1.99 | 0.057 | -0.469 | -0.442 |
| PLEKHG1 (pleckstrin homology and RhoGEF domain containing G1) | SID364005034 | -0.666 | 4.59 | -0.696 | -0.493 | -0.618 |
| DZANK1 (double zinc ribbon and ankyrin repeat domains 1) | SID364000828 | -0.604 | 2.59 | -0.643 | -0.591 | -0.26 |
| ANAPC2 (anaphase promoting complex subunit 2) | SID363998473 | -0.098 | 2.11 | -0.251 | -0.0401 | -0.0894 |
| TCEA3 (transcription elongation factor A3) | SID363994330 | 0.057 | 2.05 | 0.534 | -0.282 | 0.204 |
| SLURP1 (secreted LY6/PLAUR domain containing 1) | SID364001689 | -0.258 | 2.57 | -0.183 | -0.292 | -0.54 |
| SMARCC1 (SWI/SNF related BAF chromatin remodeling complex subunit C1) | SID363994219 | -0.291 | 4.73 | -0.308 | -0.302 | -0.122 |
| NAPSA (napsin A aspartic peptidase) | SID363995802 | -0.482 | 1.61 | -0.63 | -0.346 | -0.253 |
| HS3ST3B1 (heparan sulfate-glucosamine 3-sulfotransferase 3B1) | SID363996892 | 0.0342 | 1.11 | 0.129 | -0.245 | 0.218 |

Part of the list above, limited to “KSR1 correlation, replicate 3”:
NSA2 (NSA2 ribosome biogenesis factor) [SID363999172]	-0.411
LY96 (lymphocyte antigen 96) [SID363999443]	-0.442
PLEKHG1 (pleckstrin homology and RhoGEF domain containing G1) [SID364005034]	-0.618
DZANK1 (double zinc ribbon and ankyrin repeat domains 1) [SID364000828]	-0.26
ANAPC2 (anaphase promoting complex subunit 2) [SID363998473]	-0.0894
